# Measurements as given in patent US11179342B2, “Peptide coacervates and methods of use thereof” (NANYANG TECHNOLOGICAL UNIVERSITY, priority 2018, dated 2021).
# Part of at least one peptide drawing is inferred or uncertain, most often the ends. Residues, ends and D or L forms follow the SMILES beside them.
# Assay: Turbidimetry for DgHBP-2 peptide coacervation studies
# Type: physicochemical
compound,measurement,setting,value
"CC(C)C[C@H](NC(=O)CNC(=O)[C@H](Cc1c[nH]cn1)NC(=O)CNC(=O)[C@H](Cc1ccc(O)cc1)NC(=O)[C@@H]1CCCN1C(=O)CNC(=O)[C@H](Cc1c[nH]cn1)NC(=O)CNC(=O)[C@H](Cc1ccc(O)cc1)NC(=O)[C@@H]1CCCN1C(=O)CNC(=O)[C@H](Cc1c[nH]cn1)NC(=O)CNC(=O)[C@H](Cc1ccc(O)cc1)NC(=O)[C@@H](NC(=O)CNC(=O)[C@H](Cc1c[nH]cn1)NC(=O)CNC(=O)[C@H](Cc1ccc(O)cc1)NC(=O)[C@@H](NC(=O)CNC(=O)[C@H](Cc1c[nH]cn1)NC(=O)CN)C(C)C)C(C)C)C(=O)N[C@@H](Cc1ccc(O)cc1)C(=O)N[C@@H](Cc1c[nH]c2ccccc12)C(=O)O [DgHBP-2 peptide, GHGVYGHGVYGHGPYGHGPYGHGLYW] (H-GHGVYGHGVYGHGPYGHGPYGHGLYW-OH)",effect of further increase in ionic strength on coacervation,0.1 to 1.0M ionic strength,did not greatly affect
same,coacervation in acidic pH,acidic pH,did not occur
